# Results from paper PMC12390632.
# By UniProt entry, the sequences of proteins in these tests, tags left out. Residues count along the entry.
# UniProt P21926: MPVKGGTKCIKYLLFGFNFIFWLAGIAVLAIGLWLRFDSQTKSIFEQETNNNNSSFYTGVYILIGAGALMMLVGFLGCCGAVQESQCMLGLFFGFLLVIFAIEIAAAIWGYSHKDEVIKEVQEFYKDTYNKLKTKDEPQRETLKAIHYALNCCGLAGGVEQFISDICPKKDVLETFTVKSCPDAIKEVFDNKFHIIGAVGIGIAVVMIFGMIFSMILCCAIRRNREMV
# UniProt P05362, residues 28-532: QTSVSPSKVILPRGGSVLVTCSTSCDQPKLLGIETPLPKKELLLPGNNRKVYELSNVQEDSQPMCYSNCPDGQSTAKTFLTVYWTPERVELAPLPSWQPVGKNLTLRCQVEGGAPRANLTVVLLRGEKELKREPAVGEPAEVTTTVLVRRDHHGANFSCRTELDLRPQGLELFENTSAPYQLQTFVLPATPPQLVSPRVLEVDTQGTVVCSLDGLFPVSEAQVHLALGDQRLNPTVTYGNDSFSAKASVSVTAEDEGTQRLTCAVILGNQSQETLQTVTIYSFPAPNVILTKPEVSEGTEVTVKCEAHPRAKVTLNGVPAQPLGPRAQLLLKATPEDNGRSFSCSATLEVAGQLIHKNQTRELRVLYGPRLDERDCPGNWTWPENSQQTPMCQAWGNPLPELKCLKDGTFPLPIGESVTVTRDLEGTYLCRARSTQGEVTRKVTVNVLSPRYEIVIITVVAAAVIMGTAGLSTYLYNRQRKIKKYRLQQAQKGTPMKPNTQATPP
# These are yes or no findings as the source states them, for the method shown. In cells and extracts the contact can be indirect. Some entries that bind do so weakly or less than the wild type.
# Target: CD9 (tetraspanin CD9), endogenous (human (endogenous in SW480 and A549)) (UniProt P21926)
# Test: proximity ligation
substance,measurement,value
"ICAM-1, endogenous (from UniProt P05362 28-532)",binding,binds
